This is one part of the list. Values are raw readings; no control value is given beside them.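 Primary screen: polymyxin B was added at a level permeabilizing Salmonella outer membranes while sparing inner membranes. DMSO wells, both with and without polymyxin B, established maximum growth. Plate-to-plate variation meant each plate was ranked on its own, and the lowest-OD600 compounds were selected as hits.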
System: Salmonella enterica serovar Typhimurium SL1344
Test: bacterial growth OD600 after 18 h with compound and polymyxin B; higher = more bacterial growth (less inhibition)
Conditions: 50 µM, Mueller-Hinton broth

SMILES | bacterial growth OD600 (polymyxin B 1 µg/mL) | bacterial growth OD600 (polymyxin B 0.75 µg/mL)
COCC1CCCN(C(=O)c2coc(COc3ccc(F)cc3Cl)n2)C1 (stereo unspecified) | 0.984 | –
Cc1nn(-c2ccccc2)c(C)c1CC(=O)N1CCCC(c2ccncn2)C1 (stereo unspecified) | – | 0.768
COc1ccccc1C1(CC(=O)N(C)Cc2ccccc2C(F)(F)F)CC(=O)N(C)C1=O (stereo unspecified) | – | 0.79
Cc1nc2sccn2c1CN1CCC2(CC1)CC2C(=O)NCc1ccco1 (stereo unspecified) | – | 0.889
CC(CN1CCCC1)CN(C)C(=O)c1csc2nc(-c3ccccc3)cn12 (stereo unspecified) | 0.922 | –
OCC1(Cc2ccc(F)cc2)CCCN(C2CCN(CCc3ccccc3)CC2)C1 (stereo unspecified) | – | 0.787
CN(CCc1ccccn1)C(=O)CCC1CCCN(C(=O)c2cn3ccsc3n2)C1 (stereo unspecified) | 0.891 | –
Cc1ccccc1Oc1ncccc1CNCc1cnn(C)c1 | – | 0.927
CC1=C(C(=O)N2CCC(C(=O)Nc3cccc(-c4nnc(C)s4)c3)CC2)OCCO1 | 0.883 | –
COc1ccc(CN2CCC(C(Cc3ccccc3Cl)N(C)C(=O)c3ccco3)CC2)cc1OC (stereo unspecified) | – | 0.884
CN(C)C(=O)CCC(=O)NCc1cccnc1-n1cnc2ccccc21 | 1.06 | –
Cc1ccc(CNCC2(O)CCCN(CC3CCC3)C2=O)cc1F (stereo unspecified) | 0.776 | –
O=C1CC(NS(=O)(=O)N2CCCC2)CN1Cc1cccc2ccccc12 (stereo unspecified) | 0.947 | –
CCOC(=O)C1(Cc2ccccc2)CCN(Cc2sc(N(C)C)nc2Cl)CC1 | – | 0.751
COc1ccc(C(CC(=O)NCc2ncc[nH]2)c2ccccc2)cc1 (stereo unspecified) | 0.799 | –
Cc1ccc(C)c(CN2CCC(n3nccc3NC(=O)C(C)(C)C)CC2)c1 | 0.931 | –
CN(Cc1cccc(Cl)c1)C(=O)c1coc(COc2cccc3cnccc23)n1 | 0.49 | –
CCCOC1CCCN(c2ccc(-c3nc(C4CC4)no3)cn2)C1 (stereo unspecified) | 1.09 | –
OCC1(CCOc2ccccc2)CCN(Cc2ccc(OC(F)F)cc2)CC1 | 0.848 | –
CCOC(=O)C1CCN(Cc2cccc(OCC(O)CN3CCCCCC3)c2)CC1 (stereo unspecified) | – | 0.932
O=C(c1scc2c1OCCO2)N1CCOC(CCc2ccccc2)C1 (stereo unspecified) | – | 0.545

Look-ups from the list.
bacterial growth OD600 (polymyxin B 1 µg/mL) with Cc1ccc(C)c(CN2CCC(n3nccc3NC(=O)C(C)(C)C)CC2)c1 is entered as 0.931
bacterial growth OD600 (polymyxin B 0.75 µg/mL) with CCOC(=O)C1CCN(Cc2cccc(OCC(O)CN3CCCCCC3)c2)CC1 (stereo unspecified) is entered as 0.932

Reference: the supplement of paper PMC12889115
